Hit rate of the full screen: of about 320,000 compounds, about 22,000 (6.9%) were called active. The shares of active, inactive and inconclusive entries below differ from those in the screen. Calls come from the whole dose curve; as a rule, active = well fitted inhibition curve with a large enough effect; inconclusive = small, poorly fitted or top-dose-only effect, or another doubt; inactive = no such curve, though single readings can be large or run the other way. A potency beside an inconclusive call is a rough fit, not a confirmed value.
Test: Primary qHTS for delayed death inhibitors of the malarial parasite plastid, 96 hour incubation
Settings: P. falciparum luciferase reporter growth; series mostly up to 28.7 µM; activity change, negative = inhibition: at the top concentration
Summary of the method: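 96 h incubation, 37 C, 5% CO2, of luciferase-reporter P. falciparum-infected RBCs (2% hematocrit, 0.05% parasitemia final) with test compounds; endpoint luminescence.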
% is set by controls: 0 for no effect and ±100 for the full control effect; potency is the fitted concentration of half-maximal effect.

SMILES | Potency | activity change, negative = inhibition
COc1cccc(-n2nc(-c3ccnn3-c3ccc(C)cc3)c(=O)n(C)c2=O)c1 | inconclusive: 13.1 µM [inhibitor, single point] | 
CC1(c2ccc3ccccc3c2)NC(=O)N(CC(=O)N2CCN(Cc3ccc(C#N)cc3)CC2)C1=O (stereo not drawn) |  | inactive: -12.7%
CC(C)(C)C(=O)Oc1cccc(Nc2ncnc3ccccc23)c1 | inconclusive: 18.5 µM [inhibitor, single point] | 
COc1ccc(-n2nc(C(=O)NCC(=O)NC3CCCCC3)c3ccccc3c2=O)c(OC)c1 |  | inactive: 24.2%
O=C(O)CNC(=O)/C=C/c1ccc(Cl)cc1Cl | inconclusive: 9.28 µM [inhibitor, partial curve, poor fit] | 
CC(=O)c1ccc(NC(=S)NC(=O)/C=C/c2ccccc2)cc1 |  | inactive: 10.8%
O=C(c1cc(-c2cccnc2)nc2ccccc12)N1CCN(S(=O)(=O)c2cccs2)CC1 | active: 13.1 µM | 
Nc1c(-c2ccccc2Cl)cnn1-c1cccc([N+](=O)[O-])c1 | inconclusive: 4.15 µM [inhibitor, partial curve, poor fit] | 
Cc1cc(NS(=O)(=O)c2ccc(NC(=O)c3ccc([N+](=O)[O-])c(Cl)c3)cc2)no1 | inconclusive: 1.65 µM [inhibitor, full curve] | 
COCCN(C(=S)Nc1ccc(OC)cc1)C(C)c1cccs1 (stereo not drawn) | inconclusive: 9.28 µM [inhibitor, partial curve, poor fit] | 
Cc1ccc(-c2nnc(Nc3ccc(C(N)=O)cc3)c3ccccc23)cc1S(=O)(=O)NCC1CCCO1 (stereo not drawn) | inconclusive: 0.928 µM [inhibitor, full curve, poor fit] | 
Cc1ccc(S(=O)(=O)N(CC(=O)Nc2cccnc2)c2cccc([N+](=O)[O-])c2)cc1 | inconclusive: 13.1 µM [inhibitor, single point] | 
O=C(CCn1c(=O)oc2ccccc21)N1CCC2(CC1)OCCO2 |  | inactive: 4.48%
CC(C)c1ccc(NC2CCCN(C(=O)CN3C(=O)CSC3=O)C2)cc1 (stereo not drawn) | inconclusive: 4.15 µM [inhibitor, partial curve] | 
CC1CCc2nc(NC(=O)Nc3ccc4c(c3)OCO4)sc2C1 (stereo not drawn) | inconclusive: 18.5 µM [inhibitor, single point] | 
CCOC(=O)C1(CCCc2ccccc2)CCN(S(C)(=O)=O)CC1 | inconclusive: 18.5 µM [inhibitor, single point] | 
CCc1nnc(NS(=O)(=O)c2ccc(NC(=O)c3ccccc3OC)cc2)s1 |  | inactive: 3.22%
OCCN=C(c1ccccc1)C12CN3CN(CN(C3)C1)C2 | inconclusive: 1.47 µM [inhibitor, full curve] | 
Cc1cc2nc(-c3ccc[nH]c3=O)n(Cc3ccccc3F)c2cc1C |  | inactive: 50.2%
O=C(CNC(=O)c1cccc(F)c1)N/N=C/C=C/c1ccccc1 |  | inactive: 0%
CCOC(=O)c1[nH]c(C)c(C(=O)NCc2ccc(C)cc2)c1C | inconclusive: 10.4 µM [inhibitor, partial curve, poor fit] | 
COc1cccc(Cn2nnc(C(=O)NCc3ccc(F)cc3)c2N)c1 |  | inactive: 53.5%
Cc1cccc(C(=O)Nc2nnc(-c3cccnc3)o2)c1 |  | inactive: 1.58%

SMILES | Potency | activity change, negative = inhibition
COc1ccccc1C(=O)N(C1=NC(C)CS1)c1ccc(Cl)cc1 (stereo not drawn) | inconclusive: 5.22 µM [inhibitor, partial curve] | 
Cn1cc(Cl)c(C(=O)NC2CCCC2)n1 | inconclusive: 0.928 µM [inhibitor, full curve, poor fit] | 
CC1(C)Cc2c(C#N)c(SCCO)nc(N3CCOCC3)c2CO1 | inconclusive: 18.5 µM [inhibitor, single point] | 
CCOc1ccc(NC(=O)NC(=O)N(C)S(=O)(=O)c2ccc(C)cc2)cc1 |  | inactive: -19.8%
CCNC(=O)/C(C#N)=C/c1c(N2CCOCC2)nc2ccccn2c1=O |  | inactive: 60.2%
CCCc1cc2c(cc1NC(=O)c1ccccc1Cl)OCO2 | inconclusive: 18.5 µM [inhibitor, single point] | 
COc1ccc2nc(SCC(=O)NCc3ccccc3)[nH]c2c1 | inconclusive: 18.5 µM [inhibitor, single point] | 
COc1ccc(NC(=O)/C(C#N)=C\c2ccc(-c3cccc(C(=O)O)c3C)o2)cc1 | inconclusive: 18.5 µM [inhibitor, single point] | 
CCCN1CC(=O)N2C(c3ccccc3)c3[nH]c4ccccc4c3C[C@H]2C1=O (stereo partly drawn) | inconclusive: 2.62 µM [inhibitor, full curve] | 
Fc1cccc(CCN2C(=S)NC[C@@H]2Cc2ccccc2)c1 | inconclusive: 10.4 µM [inhibitor, single point] | 
Cn1c(=O)n(C)c2cc(/C=N/NC(=O)c3ccncc3)ccc21 | inconclusive: 16.5 µM [inhibitor, single point] | 
CCn1c2ccccc2c2cc(NC(=O)CNC)ccc21 | inconclusive: 18.5 µM [inhibitor, single point] | 
COc1ccc(CNC(=O)N2CCN(c3ccccc3)CC2)cc1 |  | inactive: 20.4%
CCN1CCN(c2ccc(S(=O)(=O)N3CCOCC3)cc2NC(=O)c2cc(Cl)nc3ccccc23)CC1 | inconclusive: 18.5 µM [inhibitor, single point] | 
CCN(CC(=O)Nc1ccc(C(C)=O)cc1)CC(=O)Nc1cccc(OC)c1 |  | inactive: 1.39%
CC(C)(C)NC(=O)Cn1c(=O)n(CC(=O)NC(C)(C)C)c2ccccc21 | inconclusive: 18.5 µM [inhibitor, single point] | 
CN(CCN1CCc2ccccc2C1)Cc1nc(-c2ccc3c(c2)OCO3)no1 | inconclusive: 2.62 µM [inhibitor, full curve, poor fit] | 
CCN1C(=O)N(C)C(N(O)C(=O)NC)C1(C)C (stereo not drawn) |  | inactive: 38.8%
N#Cc1ccccc1Sc1ccccc1C(=O)NCC(c1ccco1)N1CCCCC1 (stereo not drawn) | inconclusive: 18.5 µM [inhibitor, single point] | 
CCN(CC)CCN(Cc1cc2cc3c(cc2[nH]c1=O)OCO3)C(=S)NCCOC |  | inactive: -6.73%
Cc1cc(C)cc(C(=O)N2CCN(c3ccccn3)CC2)c1 | active: 11.7 µM | 
COc1ccc(CN2CCN(C3CCC3)CC2CCO)c(C)c1C (stereo not drawn) | inconclusive: 13.1 µM [inhibitor, partial curve, poor fit] | 
Cc1nc2ccn(Cc3ccccc3)c(=O)c2cc1C(=O)N1CCN(c2ccc(F)cc2)CC1 |  | inactive: 4.27%

SMILES | Potency | activity change, negative = inhibition
O=C(NCCCN1CCOCC1)c1cc2ccccc2oc1=O | inconclusive: 18.5 µM [inhibitor, single point] | 
COc1ccc(N=C(C)C2=C(O)COC2=O)cc1 | active: 0.329 µM | 
NCCS(=O)(=O)O | inconclusive: 4.26 µM [inhibitor, partial curve] | 
Cc1c(NC(=O)c2cnn3c(C(F)(F)F)cc(-c4ccco4)nc23)c(=O)n(-c2ccccc2)n1C | inconclusive: 20.8 µM [inhibitor, partial curve, poor fit] | 
COc1ccc(NS(=O)(=O)c2cc(C(=O)N3CCN(C(C)=O)CC3)ccc2Cl)cc1 | inconclusive: 13.1 µM [inhibitor, single point] | 
COc1ccc2cc(CCNC(=O)C3CC3)c(=O)[nH]c2c1 | inconclusive: 6.57 µM [inhibitor, partial curve, poor fit] | 
Cc1ccccc1C(=O)Nc1ccnn1C1CCN(Cc2cnn(C)c2)CC1 |  | inactive: 29.3%
O=c1ccc2ccc(Oc3ccc(Cl)cc3[N+](=O)[O-])cc2o1 | inconclusive: 0.465 µM [inhibitor, full curve, poor fit] | 
CCCOC(=O)c1ccc(NC(=O)c2cc(Cl)ccc2OC)cc1 | inconclusive: 14.7 µM [inhibitor, single point] | 
O=S(=O)(c1ccc(SCCOc2ccccc2)nc1)N1CCCC1 | inconclusive: 18.5 µM [inhibitor, single point] | 
Cc1nnc(NC(=O)CSc2nc3ccccc3o2)s1 | inconclusive: 0.0041 µM [inhibitor, full curve, poor fit] | 
CN(NC(=O)CN1C(=O)c2ccccc2C1=O)C1=NS(=O)(=O)c2ccccc21 | inconclusive: 13.1 µM [inhibitor, partial curve, poor fit] | 
COc1ccccc1CNC(=O)c1ccccc1NC(=O)C1=C(C)OCCS1 |  | inactive: -55.1%
COc1ccc(-n2nc(C(=O)NCC(=O)N3CCCCC3)c3ccccc3c2=O)c(OC)c1 | inconclusive: 1.65 µM [inhibitor, full curve, poor fit] | 
COc1ccc(OC)c(NC(=O)CSc2nc3ccccc3c3nc4ccccc4n23)c1 | inconclusive: 9.28 µM [inhibitor, partial curve, poor fit] | 
N#C/C(=C(/O)c1ccc([N+](=O)[O-])s1)c1nc2ccccc2[nH]1 | inconclusive: 9.28 µM [inhibitor, single point] | 
NC(=O)c1ccc(Cn2c(C(=O)c3cc(Cl)c(N)c(Cl)c3)c3ccccc3[n+]2[O-])cc1 | inconclusive: 18.5 µM [inhibitor, single point] | 
CCOC(=O)C(C)Sc1nc(C2CC2)cc(C(F)(F)F)c1C#N (stereo not drawn) | inconclusive: 18.5 µM [inhibitor, single point] | 
O=C(NC1CCCCCC1)C1CCN(C(=O)c2ccc(Cl)cc2)CC1 | inconclusive: 13.1 µM [inhibitor, single point] | 
O=C1COC(c2ccccc2)=CN1Cc1ccccc1 | inconclusive: 13.1 µM [inhibitor, single point] | 
CC(=O)Nc1cc2nc(C)n(Cc3ccccc3[N+](=O)[O-])c2nc1C | inconclusive: 18.5 µM [inhibitor, single point] | 
CCN1CCN(Cc2oc(CO)cc(=O)c2O)CC1 |  | inactive: 10.9%

— PubChem BioAssay AID504834 (National Center for Advancing Translational Sciences (NCATS), 2011)
